Laboratory results reported in patent US4474761A (Choay S.A., priority 1980, dated 1984).
Some peptides are written in HELM: one residue between dots, names in brackets for other building blocks, links after the first $. [ ]: non-standard residue; d: D form. The star is where a group is joined. Hyp = O=C(O)[C@@H]1C[C@@H](O)CN1; Cbz = O=C(OCc1ccccc1)*; Boc = CC(C)(C)OC(=O)*; OtBu = CC(C)(C)O*

Assay: general procedure: solution-phase peptide synthesis; isobutyl chlorocarbonate / N-methylmorpholin (mixed anhydride)

With Cbz-GK(Cbz)[Hyp]G-OtBu as the substance, how does the step yield (coupling step) read?
The step yield was 103%.

Which step yield (coupling step) does the source give for Cbz-E(OtBu)[Hyp]GPK(Boc)-OtBu here?
Its step yield is 54%.

With “PEPTIDE1{G.K.[Hyp].G.E.[Hyp].G.P.K}$$$$V2.0” as the substance, how does the step yield (late stage modification step, trifluoroacetic salt) read?
Its step yield is 91%.

Which step yield (late stage modification step) does the source give for “Glu--(OBu^t)--Hyp--Gly--Pro--Lys--(BOC)--OBu^t, acetate” here?
Its step yield is 100%.

Which step yield (late stage modification step) does the source give for Cbz-GK(Cbz)[Hyp]G-OH here?
Its step yield is 87.3%.
